{
  "source": "PubChem BioAssay",
  "note": "Several values for one entry are separate records, joined by “and”; a condition that tells them apart may be missing. Identical values can stand only once. Some of the results follow. The source made no clear call on entries shown without one. Residues, ends and D or L forms follow the SMILES beside them.",
  "data": [
    {"test": "PubChem AID 1608", "conditions": "PC12 mutant huntingtin toxicity, LDH release", "values": [
      {"smiles": "CC(=O)Oc1ccc2c(c1)CCC1C2CCC2(C)C(=O)CCC12", "note": "(stereo not drawn)", "protection score": 1.19},
      {"smiles": "CN(C)CCOC(c1ccccc1)c1ccccc1", "note": "(tested in a mixture with another compound)", "protection score": 0.802},
      {"smiles": "CN[C@@H]1[C@H](O)[C@H](NC)[C@H]2O[C@@]3(O)C(=O)C[C@@H](C)O[C@H]3O[C@@H]2[C@H]1O", "protection score": 0.873},
      {"smiles": "CC(=O)N1CCN(c2ccc(OCC3CO[C@](Cn4ccnc4)(c4ccc(Cl)cc4Cl)O3)cc2)CC1", "note": "(stereo partly drawn)", "protection score": 0.903},
      {"smiles": "N=C(N)N", "protection score": 0.73},
      {"smiles": "O=C(O)c1c2ccccc2cc2ccccc12", "protection score": 1.2},
      {"smiles": "Cc1c(OCC(F)(F)F)ccnc1CS(=O)c1nc2ccccc2[nH]1", "note": "(stereo not drawn)", "protection score": 1.31},
      {"smiles": "CCOC(=O)C(C)(C)Oc1ccc(Cl)cc1", "protection score": "0.921 and 1.02"},
      {"smiles": "CC(=O)Nc1ccc(O)cc1", "protection score": 0.875},
      {"smiles": "CCC(=O)OC1CCC2C3CCc4cc(O)ccc4C3CCC12C", "note": "(stereo not drawn)", "protection score": 1.01},
      {"smiles": "CC1CCc2cc(F)cc3c(=O)c(C(=O)O)cn1c23", "note": "(stereo not drawn)", "protection score": 0.755},
      {"smiles": "Nc1c2c(nc3ccccc13)CCCC2O", "note": "(stereo not drawn)", "protection score": 0.921},
      {"smiles": "CC(C[N+](C)(C)C)OC(N)=O", "note": "(stereo not drawn)", "protection score": 0.97},
      {"smiles": "O=c1c(-c2ccc(O)cc2)coc2cc(O)ccc12", "protection score": 1.01},
      {"smiles": "NC1(C(=O)O)CCCC1", "protection score": 0.996},
      {"smiles": "O=c1[nH]c(=O)n(C2C[C@@H](O)[C@@H](CO)O2)cc1F", "note": "(stereo partly drawn)", "protection score": 0.709},
      {"smiles": "CC(=O)O[C@]1(C(C)=O)CCC2C3C=C(Cl)C4=CC(=O)[C@@H]5C[C@@H]5[C@]4(C)C3CC[C@@]21C", "note": "(stereo partly drawn)", "protection score": 0.889},
      {"smiles": "CCCNC(=O)NS(=O)(=O)c1ccc(Cl)cc1", "protection score": 1.03},
      {"smiles": "NCCCCC(N)C(=O)NCC(=O)NC(Cc1cnc[nH]1)C(=O)NC(CCCCN)C(=O)O", "note": "(stereo not drawn) (H-KGHK-OH; configuration not given here)", "protection score": 1.11},
      {"smiles": "C[C@@H]1CC2C3C[C@H](F)C4=CC(=O)C=CC4(C)C3(F)[C@@H](O)CC2(C)C1C(=O)COC(=O)C(C)(C)C", "note": "(stereo partly drawn)", "protection score": 0.768},
      {"smiles": "CCCCCC(C)N", "note": "(stereo not drawn)", "protection score": 0.858},
      {"smiles": "NS(=O)(=O)c1cc2c(cc1C(F)(F)F)NCNS2(=O)=O", "protection score": 1.13},
      {"smiles": "COC(=O)Nc1nc2ccc(Sc3ccccc3)cc2[nH]1", "protection score": 0.953},
      {"smiles": "CCCCCCOc1ccccc1C(N)=O", "protection score": 0.867},
      {"smiles": "O=C1NC(=O)C(c2ccccc2)(c2ccccc2)N1", "protection score": 1.02},
      {"smiles": "COc1cccc(OC)c1C(=O)N[C@@H]1C(=O)N2[C@@H]1SC(C)(C)[C@@H]2C(=O)O", "protection score": 0.603},
      {"smiles": "CN(Cc1cnc2nc(N)nc(N)c2n1)c1ccc(C(=O)N[C@@H](CCC(=O)O)C(=O)O)cc1", "protection score": 1.04},
      {"smiles": "O=C1CN(/N=C/c2ccc([N+](=O)[O-])o2)C(=O)N1", "protection score": 0.937},
      {"smiles": "C=C[C@H]1CN2CC[C@H]1C[C@@H]2[C@H](O)c1ccnc2ccc(OC)cc12", "protection score": 0.872},
      {"smiles": "CSCCC(NC=O)C(=O)NC(CC(C)C)C(=O)NC(Cc1ccccc1)C(=O)O", "note": "(stereo not drawn)", "protection score": 0.806},
      {"smiles": "Cn1cc[nH]c1=S", "protection score": 0.808},
      {"smiles": "CSc1ccc2c(c1)N(CCC1CCCCN1C)c1ccccc1S2", "note": "(stereo not drawn)", "protection score": 1.13},
      {"smiles": "CC(=O)[C@H]1CCC2C3CCC4=CC(=O)CC[C@]4(C)C3CC[C@@]21C", "note": "(stereo partly drawn)", "protection score": 0.597},
      {"smiles": "C=C[C@@]1(C)CC(=O)[C@@]2(O)[C@](C)(O1)[C@@H](OC(C)=O)[C@@H](O)C1C(C)(C)CC[C@H](O)[C@@]12C", "note": "(stereo partly drawn)", "protection score": 0.858},
      {"smiles": "Cc1cc(C)nc(NS(=O)(=O)c2ccc(N)cc2)n1", "protection score": 0.706},
      {"smiles": "NNc1nncc2ccccc12", "protection score": 0.996},
      {"smiles": "CN(C)CCCN1c2ccccc2Sc2ccc(Cl)cc21", "protection score": 1.02},
      {"smiles": "O=C(O)C1=CCNCC1", "protection score": 0.99},
      {"smiles": "COc1cc(C(=O)NCc2ccc(OCCN(C)C)cc2)cc(OC)c1OC", "protection score": 0.974}
    ]},
    {"test": "rescue of PC12 cells from polyQ htt toxicity – LDH release (AID 1610)", "conditions": "PC12 mutant huntingtin toxicity; at 100 µM (top of the series)", "values": [
      {"smiles": "CC(=O)Oc1ccc2c(c1)CCC1C2CCC2(C)C(=O)CCC12", "note": "(stereo not drawn)", "normalised LDH release, lower = protection": 1.03},
      {"smiles": "CN(C)CCOC(c1ccccc1)c1ccccc1", "note": "(tested in a mixture with another compound)", "normalised LDH release, lower = protection": 1.69},
      {"smiles": "CN[C@@H]1[C@H](O)[C@H](NC)[C@H]2O[C@@]3(O)C(=O)C[C@@H](C)O[C@H]3O[C@@H]2[C@H]1O", "normalised LDH release, lower = protection": 0.71},
      {"smiles": "CC(=O)N1CCN(c2ccc(OCC3CO[C@](Cn4ccnc4)(c4ccc(Cl)cc4Cl)O3)cc2)CC1", "note": "(stereo partly drawn)", "normalised LDH release, lower = protection": 0.937},
      {"smiles": "N=C(N)N", "normalised LDH release, lower = protection": 0.564},
      {"smiles": "O=C(O)c1c2ccccc2cc2ccccc12", "normalised LDH release, lower = protection": 0.4},
      {"smiles": "Cc1c(OCC(F)(F)F)ccnc1CS(=O)c1nc2ccccc2[nH]1", "note": "(stereo not drawn)", "normalised LDH release, lower = protection": 0.524},
      {"smiles": "CCOC(=O)C(C)(C)Oc1ccc(Cl)cc1", "normalised LDH release, lower = protection": "0.79 and 0.884"},
      {"smiles": "CC(=O)Nc1ccc(O)cc1", "normalised LDH release, lower = protection": 0.818},
      {"smiles": "CCC(=O)OC1CCC2C3CCc4cc(O)ccc4C3CCC12C", "note": "(stereo not drawn)", "normalised LDH release, lower = protection": 1.47},
      {"smiles": "CC1CCc2cc(F)cc3c(=O)c(C(=O)O)cn1c23", "note": "(stereo not drawn)", "normalised LDH release, lower = protection": 0.775},
      {"smiles": "Nc1c2c(nc3ccccc13)CCCC2O", "note": "(stereo not drawn)", "normalised LDH release, lower = protection": 0.532},
      {"smiles": "CC(C[N+](C)(C)C)OC(N)=O", "note": "(stereo not drawn)", "normalised LDH release, lower = protection": 0.881},
      {"smiles": "O=c1c(-c2ccc(O)cc2)coc2cc(O)ccc12", "normalised LDH release, lower = protection": 1.09},
      {"smiles": "NC1(C(=O)O)CCCC1", "normalised LDH release, lower = protection": 0.941},
      {"smiles": "O=c1[nH]c(=O)n(C2C[C@@H](O)[C@@H](CO)O2)cc1F", "note": "(stereo partly drawn)", "normalised LDH release, lower = protection": 1.04},
      {"smiles": "CC(=O)O[C@]1(C(C)=O)CCC2C3C=C(Cl)C4=CC(=O)[C@@H]5C[C@@H]5[C@]4(C)C3CC[C@@]21C", "note": "(stereo partly drawn)", "normalised LDH release, lower = protection": 0.395},
      {"smiles": "CCCNC(=O)NS(=O)(=O)c1ccc(Cl)cc1", "normalised LDH release, lower = protection": 0.998},
      {"smiles": "NCCCCC(N)C(=O)NCC(=O)NC(Cc1cnc[nH]1)C(=O)NC(CCCCN)C(=O)O", "note": "(stereo not drawn) (H-KGHK-OH; configuration not given here)", "normalised LDH release, lower = protection": 1.05},
      {"smiles": "C[C@@H]1CC2C3C[C@H](F)C4=CC(=O)C=CC4(C)C3(F)[C@@H](O)CC2(C)C1C(=O)COC(=O)C(C)(C)C", "note": "(stereo partly drawn)", "normalised LDH release, lower = protection": 0.413},
      {"smiles": "CCCCCC(C)N", "note": "(stereo not drawn)", "normalised LDH release, lower = protection": 0.685},
      {"smiles": "NS(=O)(=O)c1cc2c(cc1C(F)(F)F)NCNS2(=O)=O", "normalised LDH release, lower = protection": 1.55},
      {"smiles": "COC(=O)Nc1nc2ccc(Sc3ccccc3)cc2[nH]1", "normalised LDH release, lower = protection": 1.61},
      {"smiles": "CCCCCCOc1ccccc1C(N)=O", "normalised LDH release, lower = protection": 0.633},
      {"smiles": "O=C1NC(=O)C(c2ccccc2)(c2ccccc2)N1", "normalised LDH release, lower = protection": 0.724},
      {"smiles": "COc1cccc(OC)c1C(=O)N[C@@H]1C(=O)N2[C@@H]1SC(C)(C)[C@@H]2C(=O)O", "normalised LDH release, lower = protection": 0.47},
      {"smiles": "CN(Cc1cnc2nc(N)nc(N)c2n1)c1ccc(C(=O)N[C@@H](CCC(=O)O)C(=O)O)cc1", "normalised LDH release, lower = protection": 0.899},
      {"smiles": "O=C1CN(/N=C/c2ccc([N+](=O)[O-])o2)C(=O)N1", "normalised LDH release, lower = protection": -0.054},
      {"smiles": "C=C[C@H]1CN2CC[C@H]1C[C@@H]2[C@H](O)c1ccnc2ccc(OC)cc12", "normalised LDH release, lower = protection": 0.576},
      {"smiles": "CSCCC(NC=O)C(=O)NC(CC(C)C)C(=O)NC(Cc1ccccc1)C(=O)O", "note": "(stereo not drawn)", "normalised LDH release, lower = protection": 0.427},
      {"smiles": "Cn1cc[nH]c1=S", "normalised LDH release, lower = protection": 0.416},
      {"smiles": "CSc1ccc2c(c1)N(CCC1CCCCN1C)c1ccccc1S2", "note": "(stereo not drawn)", "normalised LDH release, lower = protection": 0.922},
      {"smiles": "CC(=O)[C@H]1CCC2C3CCC4=CC(=O)CC[C@]4(C)C3CC[C@@]21C", "note": "(stereo partly drawn)", "normalised LDH release, lower = protection": 0.4},
      {"smiles": "C=C[C@@]1(C)CC(=O)[C@@]2(O)[C@](C)(O1)[C@@H](OC(C)=O)[C@@H](O)C1C(C)(C)CC[C@H](O)[C@@]12C", "note": "(stereo partly drawn)", "normalised LDH release, lower = protection": 1.03},
      {"smiles": "Cc1cc(C)nc(NS(=O)(=O)c2ccc(N)cc2)n1", "normalised LDH release, lower = protection": 0.848},
      {"smiles": "NNc1nncc2ccccc12", "normalised LDH release, lower = protection": 0.801},
      {"smiles": "CN(C)CCCN1c2ccccc2Sc2ccc(Cl)cc21", "normalised LDH release, lower = protection": 0.988},
      {"smiles": "O=C(O)C1=CCNCC1", "normalised LDH release, lower = protection": 0.878},
      {"smiles": "COc1cc(C(=O)NCc2ccc(OCCN(C)C)cc2)cc(OC)c1OC", "normalised LDH release, lower = protection": 0.659}
    ]}
  ]
}
